Source: the supplement of paper PMC3334620
In all, about 33,000 sequences were measured (“E-score (-0.5 to 0.5)”: median about -0.0014, highest 2% from about 0.25 on). The list shows a part of the results.

Target: T1, Cad1 (UniProt P24813)
T1 sequence: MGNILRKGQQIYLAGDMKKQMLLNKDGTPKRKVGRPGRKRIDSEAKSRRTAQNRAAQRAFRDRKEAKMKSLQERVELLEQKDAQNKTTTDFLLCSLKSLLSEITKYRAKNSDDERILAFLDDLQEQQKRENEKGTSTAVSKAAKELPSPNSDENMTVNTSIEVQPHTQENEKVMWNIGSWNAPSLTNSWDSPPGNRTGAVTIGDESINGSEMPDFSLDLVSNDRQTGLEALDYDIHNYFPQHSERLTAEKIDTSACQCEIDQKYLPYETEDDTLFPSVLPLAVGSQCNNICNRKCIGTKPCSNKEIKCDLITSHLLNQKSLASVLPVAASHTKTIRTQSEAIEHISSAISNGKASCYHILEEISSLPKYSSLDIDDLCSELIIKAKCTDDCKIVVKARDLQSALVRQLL
Assay: PBM E-score (8-mer binding enrichment) (E-score (-0.5 to 0.5)); higher = stronger / more preferred TF binding
Conditions: protein concentration: 100 nM; construct: GST-full length
Procedure, shortened: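 Masliner-normalised scans of fluorescent anti-GST signal were the basis for scoring. That signal came from GST-tagged yeast transcription factors applied at about 100-200 nM to double-stranded universal all-10-mer Agilent arrays on fresh or once-stripped slides. Each ungapped eight-base word, pooled with its reverse complement, received an E-score from the Universal PBM Analysis Suite.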

Sequence	PBM E-score
AGTCGTAG	0.0922
GCGTTTCC	0.00132
CAACGCTC	-0.00505
CAGAGGAG	-0.207
CCTTGGCC	-0.294
ATTGGCCG	-0.0152
CCTTTCAC	-0.0212
TACAGGAA	0.143
CTACCTTA	-0.0649
ATGATTCG	0.0287
GAGTTCTA	-0.0249
AGCGTGAT	0.0917
GTACGTCA	-0.0733
CAGACGCC	0.0512
AGGCGAAG	-0.102
CCGCCCAA	-0.0315
ATTTGCAG	0.071
GCGTTCCA	0.00756
AGAACCAG	-0.0228
GGTTCAAA	-0.00859
ATTAAGTG	0.0416
CGCACCAG	0.079
CGTATCCC	-0.143
CAGGAATC	0.136
TATAATGA	0.0357

Sequence	PBM E-score
ATTTCATC	0.146
GCGCGGGA	0.131
GCGCCACC	-0.166
ATCTGTGG	-0.156
GCAGCAGA	0.0805
GCGTTACA	0.0567
GAAAAAGA	0.142
ATTCCGGA	0.254
GCAAAAAA	0.209
ATAATCCG	0.119
GTTTTCTA	0.225
GCCCTGTA	0.0929
AGTACTTC	0.101
GGTACACA	-0.0387
CACAGATG	-0.0298
CTAGGTTC	-0.112
CGTGCGGA	0.0975
AATCCGTG	-0.115
CAGGAGAA	0.18
ACCCAGAC	0.0577
ACATTCTC	0.0691
ACACCGCG	-0.019
CCTGTGAG	-0.0161
GAACCGGC	-0.143
CCTTATCA	0.257

Sequence	PBM E-score
AATCGGCT	0.0275
GCCCATCC	-0.201
TACTAACA	0.236
CGGCGGCC	-0.0816
CATTGTGC	-0.0206
CAGGGCAG	0.0366
AGTATTCG	0.0629
CAAAGTTC	-0.0988
CTTATTAA	0.42
AATTCTAA	0.0775
CTTGTTGA	0.0639
ACATTGCT	-0.0105
TGGGGAAA	0.0555
CGGTCCTA	-0.137
GGATTCAA	0.0187
CCTAAATC	0.118
CATAAAAA	0.15
CAGCATAA	0.169
AAACATCG	0.0586
AACACCTT	0.043
TAGCCACA	0.112
TCTTCCAA	0.0298
GACGAGGC	-0.0866
GAATACTA	0.168
ATAGGTTA	-0.042

Sequence	PBM E-score
GACGTTCC	-0.0301
AGTAGACT	-0.0304
ATGAACGC	0.252
GTCGAAAC	-0.00792
GGTTGTAC	-0.0362
CAAAAATA	0.237
CACTTCGA	0.0204
CTACAGGC	-0.247
ATAGCGTC	-0.0472
GCCACGCC	-0.171
GATTCAGC	0.092
CCAAATCC	-0.158
ACATTTCC	0.0781
GCGAGGGA	-0.144
ACATGTTG	0.102
CTATCCGA	0.13
CAGACTGG	-0.148
CCACATCC	-0.0199
TCCTATAA	-0.0943
TGAAGAAA	0.0964
GAAGACAA	0.0581
CAATAATG	0.0688
GCCTAGAA	-0.126
AGTCGTGC	-0.15
AGGTCCCC	-0.312

Sequence	PBM E-score
CAGGTGCG	0.0717
ACTCAATC	-0.059
TAGTTAGA	0.0256
AGTTGCAC	-0.0648
ATGTTAGC	0.0327
ACGTTCGC	-0.156
CCATGAAC	0.124
AGAACGGC	0.0691
TATGGACA	0.139
AATCAACG	0.218
ACTGGCTC	-0.119
AAGCTGGC	-0.0814
CAGGGAAA	-0.054
AATCCGAA	-0.0355
GCATTTCA	0.0711
AGGTTCGG	-0.0731
GATATGGA	0.266
AGGCGACA	-0.09
ATACATTA	0.142
ATCCGTGG	-0.181
AATGTCCC	-0.161
AGACCGGC	-0.266
GACTAGTC	0.0487
AGTATACC	-0.0136
CAGAACCC	-0.00867

Sequence	PBM E-score
CTGCCCTC	-0.293
GTACCCAA	0.0319
CACATCTA	0.0263
AGAACCGA	-0.0568
GCGACCAC	-0.0263
TGTTCCAA	-0.0523
CAAAGGTA	-0.0389
GGCACAAC	-0.129
CGAGCTCC	-0.0362
GTTCCTAA	0.0435
ACATTGAC	0.0444
CCAACTCA	-0.0884
GCATGAGA	0.125
CCTCACAC	-0.132
ACTACTGC	-0.0336
CAAACGGG	-0.00709
AGGGGTGA	-0.343
ACTATCGA	-0.0586
ACTTTGGC	-0.0521
ATAAAACG	0.0271
CCGCAGCG	-0.134
GAACCGTA	-0.126
GCGTAAAC	0.221
CTCGCTGA	0.0202
AATCCGAG	-0.0178

Sequence	PBM E-score
AGGAATGC	-0.122
AACAGCAC	0.1
GCTGAGGA	-0.222
ACGGTTAG	-0.181
TAACAGCA	0.15
ACGTACCA	0.0421
AATCTCTC	0.0573
GCATCGGA	0.112
CGGATTCA	0.152
GGCCTTGA	0.0013
TCTTTCAA	0.00752
CTTTGACC	-0.00588
AGTCTTTG	-0.0888
GTAGTGGA	0.0378
ACCACTCG	0.248
CCCTCCTC	-0.238
ACCCTAGC	-0.0846
ATACATAC	-0.195
ATAGCAGC	-0.071
AAATAAGT	0.102
GATCGAAC	-0.0289
CAAGTTTA	0.0121
GCGGTTAC	0.141
CCCAGTGC	-0.124
CGAACGAA	0.129

Sequence	PBM E-score
AGCTCTCA	-0.00832
GTTTTGCA	0.107
AGTTTCTG	0.0801
GAGCTTCA	0.0986
ACGAATTG	-0.035
GTTTAGTA	0.148
AAGCTCTG	-0.164
CTAAGCAA	0.0503
CCTTTCTC	-0.228
CGTACCGA	-0.0922
CAGTCATC	-0.119
CCACCTGC	-0.00282
ATATATTC	0.199
ACAAACAA	0.176
CTGCATCC	0.153
GTCCTTAA	0.195
AATCCGGC	0.104
CCTAATTA	0.156
CCCCCATC	-0.259
TCCGTCCA	-0.0226
ATAGTCTA	-0.1
TAGGTCAA	0.0823
CGTAATAG	0.0595
CGTCATGA	0.0268
ATACCGAG	0.00129

Sequence	PBM E-score
ATTTGCCC	0.0698
ACTGGTAC	-0.0677
CTCATTTC	-0.0186
CGTGAACA	0.12
AATTAGGC	0.16
ATATGTGC	0.0122
ACCCGAAA	0.0537
ACGAGGTC	0.0145
GGGTATTA	0.0451
GGCCGTAC	0.0841
CATAGAGG	0.0334
GCGGGTAA	-0.122
AGCATTAT	0.134
GGCGTAAA	0.0237
ATTGAGAA	0.14
ACCGTCGA	0.0162
CGTCCATC	0.0535
CGAAGATC	0.0255
AGTGGTAA	-0.01
ACCTGTCG	0.014
CGTCGAAG	-0.0148
CTAAATAC	0.0286
CTTGATGA	0.12
TGACTAAA	0.232
AAAAGGCT	-0.137

As a short view, part of the list above:
Sequence	PBM E-score
ATTTGCCC	0.0698
ACTGGTAC	-0.0677

Carrying on:

Sequence	PBM E-score
ACTAGGTA	0.125
CCGACATA	0.0533
TGGGCCCA	0.00117
TAACCAAA	0.088
GTACACAC	0.132
ACTACCTG	0.0564
GAGTGGCA	-0.0542
AGTCTCAA	-0.169
CAGCCACG	0.0309
ACAAGGCA	-0.071
CCTTGGAA	0.00444
GTGGCGGA	-0.2
AGGATACA	0.0144
AAACTCTT	-0.205
GACAAGGA	0.049
CTAGTGCC	-0.131
CCTGAGCA	0.0777
ACTACCAC	-0.0934
AGGGATTA	0.118
AGAAATCC	0.101
AATCCGTC	0.0433
CGAAGAAG	0.027
GAACGGGA	-0.239
ACCCAAGC	-0.189
GCATGAAA	0.14

Sequence	PBM E-score
CGCCCTGA	0.0238
CTGGTATC	0.0505
ACGATCTG	-0.0324
AGCAGGGC	-0.0265
GCACCGCC	-0.315
AAGACATT	-0.147
GATCGGTA	0.118
ACATGGAG	-0.202
ATAATTAA	0.323
AGCATCAC	-0.0601
ACAAGTGT	0.0643
GAGCTCCA	0.0585
AACTACAT	0.0419
ACTTCTAT	-0.0199
CCTCCAGG	-0.262
CACAAACC	-0.161
ATGCACGA	-0.0577
CTCAGGAC	0.0748
GACCGCAA	-0.0111
GCAACCTA	-0.0451
GCGGTTCA	-0.0678
CCCCCAAG	-0.289
AGCCGAAC	0.0145
CCAGCACG	-0.0818
ACATTCCT	-0.0818

Sequence	PBM E-score
CATCTCTA	-0.054
AAGAACCG	0.104
ACGAACAG	-0.0601
GCCAAAAA	0.122
ATAAACAC	0.15
CGCCGATC	-0.00182
TGGGACAA	0.00876
CGGTCGAA	-0.0909
GCATTAGC	-0.0978
CAGTCTGA	0.0314
GGACCTCC	-0.175
ATTCTCCC	0.115
AATAAGGC	0.0576
GAGAAATA	0.12
ATCCAGAA	-0.00538
ATCGCCTA	-0.124
GGGTACCA	-0.211
ACAGAGTA	-0.117
ATTAAGAA	0.127
CGGATTGC	0.151
CACTTCAC	-0.11
AGCGCAAC	0.0949
TCAAACAA	0.11
ATGTTCTG	-0.094
CCATTCCG	-0.119

Sequence	PBM E-score
AAGTCAAG	-0.179
CTTTGAAC	-0.0585
GCCTTTAC	-0.0688
AATACACT	0.158
GGTATTGA	0.0579
AGTGCTTA	0.152
CTTGCCAC	-0.096
GTTGGGCA	-0.00633
AGTGGGCC	-0.28
GGTCTATA	-0.0454
CTCCTATC	-0.0871
ATGCGGGA	0.0554
ATTTTAAA	0.207
GTGTAAAA	0.0903
AAGTAGGT	-0.0979
CCGGGGGC	-0.406
ACAGAGCT	-0.22
CCGTATAA	0.138
CAGTCAGA	-0.0538
TACCTTAA	-0.113
ACGTTTTA	0.115
GACTATAC	0.0805
CACCCCAA	-0.0609
CCCGTTTA	0.158
ACAAATAG	0.182

Sequence	PBM E-score
AAATCGTT	0.112
CCCTGCCA	-0.133
CCAGGCAG	-0.221
CCCAACCG	-0.169
AGGATTGG	-0.0802
AACCGCTC	-0.135
AGAGATCG	0.0688
AGAAGCAA	-0.0141
CACAAGTA	-0.0393
AATCCACT	-0.00921
GCCTCGCA	-0.155
CATGTAAG	0.129
CTAAGGCC	0.0544
ACGTGTCT	-0.0413
CCGAGGAA	0.0902
ACTGCAAG	-0.165
CTGCCAGC	-0.0309
CCAGAGTA	-0.11
TCTTAGAA	0.192

7 records picked at random from the list so far, as already listed:
Sequence	PBM E-score
CTCAGGAC	0.0748
ATAAACAC	0.15
GTAGTGGA	0.0378
CCCTCCTC	-0.238
AGCATCAC	-0.0601
ATAATCCG	0.119
CTAGTGCC	-0.131

Some of the entries above in another layout.
Sequence,PBM E-score
AAAAGGCT,-0.137
ACTAGGTA,0.125
CCGACATA,0.0533
TGGGCCCA,0.00117
